Measured values published in the supplement of paper PMC10849652.
The other results are listed elsewhere or left out.

By UniProt entry, the sequences of proteins in these tests, tags left out. Where a name states a change or a piece, a line headed by the entry shows the natural chain unless it says otherwise.
UniProt Q9H3Z4: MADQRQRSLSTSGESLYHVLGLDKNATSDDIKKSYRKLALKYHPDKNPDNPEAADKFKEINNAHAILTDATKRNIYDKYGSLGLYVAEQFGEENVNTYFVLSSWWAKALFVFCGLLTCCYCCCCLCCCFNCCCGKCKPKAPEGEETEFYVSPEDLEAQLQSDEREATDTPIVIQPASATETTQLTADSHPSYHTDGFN
UniProt Q14919: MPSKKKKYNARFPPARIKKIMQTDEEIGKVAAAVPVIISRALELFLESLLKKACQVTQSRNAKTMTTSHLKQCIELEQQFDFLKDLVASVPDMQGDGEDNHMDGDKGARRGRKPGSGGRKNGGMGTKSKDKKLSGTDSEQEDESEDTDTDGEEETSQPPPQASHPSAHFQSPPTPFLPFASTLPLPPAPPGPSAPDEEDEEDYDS
UniProt Q8WXX5: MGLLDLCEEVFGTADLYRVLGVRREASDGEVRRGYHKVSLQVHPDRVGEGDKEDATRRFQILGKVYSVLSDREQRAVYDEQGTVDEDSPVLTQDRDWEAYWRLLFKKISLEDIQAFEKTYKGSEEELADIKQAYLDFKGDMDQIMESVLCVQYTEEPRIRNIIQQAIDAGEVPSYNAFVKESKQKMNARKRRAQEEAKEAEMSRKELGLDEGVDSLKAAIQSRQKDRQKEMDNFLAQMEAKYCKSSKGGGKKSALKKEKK
UniProt O60762: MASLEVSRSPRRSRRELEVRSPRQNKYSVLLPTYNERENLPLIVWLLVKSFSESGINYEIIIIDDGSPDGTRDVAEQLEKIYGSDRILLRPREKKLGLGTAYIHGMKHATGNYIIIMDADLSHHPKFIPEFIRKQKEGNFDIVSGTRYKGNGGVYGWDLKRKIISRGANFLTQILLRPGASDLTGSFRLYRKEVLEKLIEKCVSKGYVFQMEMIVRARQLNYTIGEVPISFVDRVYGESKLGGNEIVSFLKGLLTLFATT
UniProt P51452: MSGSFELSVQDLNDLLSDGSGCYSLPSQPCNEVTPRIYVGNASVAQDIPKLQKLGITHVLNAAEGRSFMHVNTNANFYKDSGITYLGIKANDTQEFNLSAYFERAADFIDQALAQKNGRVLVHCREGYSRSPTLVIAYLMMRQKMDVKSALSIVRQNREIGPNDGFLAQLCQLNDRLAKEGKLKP
UniProt Q05193: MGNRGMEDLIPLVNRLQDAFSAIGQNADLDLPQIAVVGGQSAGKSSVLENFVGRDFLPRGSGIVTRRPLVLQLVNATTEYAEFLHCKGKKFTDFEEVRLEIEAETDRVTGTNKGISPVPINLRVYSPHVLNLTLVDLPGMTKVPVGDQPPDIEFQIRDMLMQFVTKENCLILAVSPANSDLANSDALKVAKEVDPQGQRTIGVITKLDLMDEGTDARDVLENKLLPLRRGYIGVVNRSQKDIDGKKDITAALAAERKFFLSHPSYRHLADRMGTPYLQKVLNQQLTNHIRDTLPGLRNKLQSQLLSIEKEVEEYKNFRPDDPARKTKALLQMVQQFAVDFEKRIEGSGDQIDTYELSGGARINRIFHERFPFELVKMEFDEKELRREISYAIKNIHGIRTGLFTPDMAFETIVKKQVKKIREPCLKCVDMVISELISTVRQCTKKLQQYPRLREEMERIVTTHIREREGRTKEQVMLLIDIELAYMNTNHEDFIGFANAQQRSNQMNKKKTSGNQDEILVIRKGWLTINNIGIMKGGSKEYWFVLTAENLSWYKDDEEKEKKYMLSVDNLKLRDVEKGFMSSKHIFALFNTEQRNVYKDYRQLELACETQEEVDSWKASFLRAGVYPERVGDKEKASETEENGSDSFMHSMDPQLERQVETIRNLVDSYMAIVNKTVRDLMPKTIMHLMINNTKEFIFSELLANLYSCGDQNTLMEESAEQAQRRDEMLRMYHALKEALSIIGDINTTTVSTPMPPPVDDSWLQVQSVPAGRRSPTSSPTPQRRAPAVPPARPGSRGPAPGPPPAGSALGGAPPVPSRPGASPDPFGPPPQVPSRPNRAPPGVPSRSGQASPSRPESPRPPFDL
UniProt Q9UPQ8: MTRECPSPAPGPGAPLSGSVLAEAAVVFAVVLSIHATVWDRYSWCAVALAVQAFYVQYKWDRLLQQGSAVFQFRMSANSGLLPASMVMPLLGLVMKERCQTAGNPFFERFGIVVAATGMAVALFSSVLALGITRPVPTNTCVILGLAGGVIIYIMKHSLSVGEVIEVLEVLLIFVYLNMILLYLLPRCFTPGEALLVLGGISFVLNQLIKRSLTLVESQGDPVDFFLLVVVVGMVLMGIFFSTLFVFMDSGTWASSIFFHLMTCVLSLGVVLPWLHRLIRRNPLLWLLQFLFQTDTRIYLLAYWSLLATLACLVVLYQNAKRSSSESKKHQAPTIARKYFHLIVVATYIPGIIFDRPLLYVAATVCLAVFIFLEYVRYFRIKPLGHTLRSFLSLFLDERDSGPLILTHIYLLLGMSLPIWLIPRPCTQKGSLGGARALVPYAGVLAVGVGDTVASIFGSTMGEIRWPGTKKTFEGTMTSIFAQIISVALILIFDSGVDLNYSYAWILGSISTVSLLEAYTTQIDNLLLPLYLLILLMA
UniProt Q86TI2: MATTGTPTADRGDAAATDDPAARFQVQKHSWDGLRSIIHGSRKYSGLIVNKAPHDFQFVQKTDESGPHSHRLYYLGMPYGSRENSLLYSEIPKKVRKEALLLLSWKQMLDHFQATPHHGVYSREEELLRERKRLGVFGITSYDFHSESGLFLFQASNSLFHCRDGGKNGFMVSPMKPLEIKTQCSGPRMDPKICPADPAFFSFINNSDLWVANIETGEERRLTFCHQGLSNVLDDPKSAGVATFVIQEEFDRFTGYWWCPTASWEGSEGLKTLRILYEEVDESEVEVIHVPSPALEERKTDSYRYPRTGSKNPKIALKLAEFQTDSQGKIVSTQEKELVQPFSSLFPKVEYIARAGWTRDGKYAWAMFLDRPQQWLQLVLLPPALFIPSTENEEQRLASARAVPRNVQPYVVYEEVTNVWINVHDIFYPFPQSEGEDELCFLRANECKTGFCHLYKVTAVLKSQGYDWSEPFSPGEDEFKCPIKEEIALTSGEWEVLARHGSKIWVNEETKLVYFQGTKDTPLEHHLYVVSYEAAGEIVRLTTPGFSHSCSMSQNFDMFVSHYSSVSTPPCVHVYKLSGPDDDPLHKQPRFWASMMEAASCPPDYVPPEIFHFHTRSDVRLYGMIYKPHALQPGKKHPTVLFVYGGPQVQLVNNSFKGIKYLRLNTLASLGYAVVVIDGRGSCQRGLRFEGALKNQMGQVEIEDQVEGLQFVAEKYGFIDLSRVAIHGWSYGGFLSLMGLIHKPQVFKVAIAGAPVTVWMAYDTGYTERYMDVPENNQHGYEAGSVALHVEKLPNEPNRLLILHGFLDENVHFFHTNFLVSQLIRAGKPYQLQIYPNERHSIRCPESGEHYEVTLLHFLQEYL
UniProt Q56P03: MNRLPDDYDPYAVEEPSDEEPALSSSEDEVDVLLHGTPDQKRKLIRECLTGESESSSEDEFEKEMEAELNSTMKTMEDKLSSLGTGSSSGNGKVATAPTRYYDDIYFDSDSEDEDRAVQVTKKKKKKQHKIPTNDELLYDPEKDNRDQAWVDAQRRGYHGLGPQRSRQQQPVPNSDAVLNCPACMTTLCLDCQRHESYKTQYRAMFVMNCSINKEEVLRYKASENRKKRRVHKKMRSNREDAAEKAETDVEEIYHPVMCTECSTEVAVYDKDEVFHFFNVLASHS
UniProt Q3B7T1: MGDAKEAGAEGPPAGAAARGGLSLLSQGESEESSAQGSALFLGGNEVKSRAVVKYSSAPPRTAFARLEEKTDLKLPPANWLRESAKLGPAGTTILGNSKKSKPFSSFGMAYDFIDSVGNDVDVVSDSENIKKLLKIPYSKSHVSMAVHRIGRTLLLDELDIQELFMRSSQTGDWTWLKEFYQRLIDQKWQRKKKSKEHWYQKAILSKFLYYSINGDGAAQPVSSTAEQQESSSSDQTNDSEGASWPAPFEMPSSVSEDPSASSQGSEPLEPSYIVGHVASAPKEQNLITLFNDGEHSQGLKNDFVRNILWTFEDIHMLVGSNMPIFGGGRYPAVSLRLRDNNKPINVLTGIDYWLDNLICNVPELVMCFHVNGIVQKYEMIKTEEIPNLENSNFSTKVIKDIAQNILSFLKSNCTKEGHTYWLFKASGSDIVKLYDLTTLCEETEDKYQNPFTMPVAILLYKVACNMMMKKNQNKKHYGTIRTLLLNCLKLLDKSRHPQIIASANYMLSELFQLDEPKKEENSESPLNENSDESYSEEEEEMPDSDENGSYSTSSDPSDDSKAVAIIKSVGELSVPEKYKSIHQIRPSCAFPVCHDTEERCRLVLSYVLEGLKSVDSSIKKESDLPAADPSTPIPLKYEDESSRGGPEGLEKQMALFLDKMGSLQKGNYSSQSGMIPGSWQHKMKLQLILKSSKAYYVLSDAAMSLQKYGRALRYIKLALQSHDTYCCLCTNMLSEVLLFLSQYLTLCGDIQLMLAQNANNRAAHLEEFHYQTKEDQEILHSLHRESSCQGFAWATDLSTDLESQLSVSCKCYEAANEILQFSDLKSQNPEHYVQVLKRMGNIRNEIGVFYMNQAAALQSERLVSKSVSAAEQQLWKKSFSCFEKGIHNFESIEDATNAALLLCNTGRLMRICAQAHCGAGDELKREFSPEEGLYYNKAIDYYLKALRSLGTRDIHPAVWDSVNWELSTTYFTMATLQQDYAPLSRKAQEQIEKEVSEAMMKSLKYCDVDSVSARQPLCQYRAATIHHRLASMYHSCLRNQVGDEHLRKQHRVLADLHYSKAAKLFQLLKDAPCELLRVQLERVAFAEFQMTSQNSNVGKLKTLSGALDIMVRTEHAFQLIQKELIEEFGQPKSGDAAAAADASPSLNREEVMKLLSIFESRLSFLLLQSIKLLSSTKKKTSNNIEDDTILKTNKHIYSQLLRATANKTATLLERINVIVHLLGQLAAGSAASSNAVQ
UniProt Q8N5C7: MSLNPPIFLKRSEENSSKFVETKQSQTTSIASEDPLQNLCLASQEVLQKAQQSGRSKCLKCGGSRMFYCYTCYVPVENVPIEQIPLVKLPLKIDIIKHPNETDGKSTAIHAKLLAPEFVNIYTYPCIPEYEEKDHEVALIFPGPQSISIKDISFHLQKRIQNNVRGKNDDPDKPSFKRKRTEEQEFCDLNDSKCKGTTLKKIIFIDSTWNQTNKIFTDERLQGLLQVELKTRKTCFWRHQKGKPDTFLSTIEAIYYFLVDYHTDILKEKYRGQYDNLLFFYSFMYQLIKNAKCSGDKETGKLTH
UniProt Q7L591: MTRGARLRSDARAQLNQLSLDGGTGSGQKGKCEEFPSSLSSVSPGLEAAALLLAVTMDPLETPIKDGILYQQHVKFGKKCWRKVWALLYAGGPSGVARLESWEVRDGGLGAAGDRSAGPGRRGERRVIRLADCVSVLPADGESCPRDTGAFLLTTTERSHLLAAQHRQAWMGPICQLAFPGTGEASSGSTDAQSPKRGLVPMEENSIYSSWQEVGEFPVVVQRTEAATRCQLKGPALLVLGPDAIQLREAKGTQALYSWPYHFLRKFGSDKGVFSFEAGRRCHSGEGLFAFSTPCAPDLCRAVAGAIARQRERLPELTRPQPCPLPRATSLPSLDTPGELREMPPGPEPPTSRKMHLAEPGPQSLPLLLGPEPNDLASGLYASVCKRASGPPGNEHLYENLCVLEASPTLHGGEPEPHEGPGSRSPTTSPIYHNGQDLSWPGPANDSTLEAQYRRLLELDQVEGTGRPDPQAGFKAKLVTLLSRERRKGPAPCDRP
UniProt P50570: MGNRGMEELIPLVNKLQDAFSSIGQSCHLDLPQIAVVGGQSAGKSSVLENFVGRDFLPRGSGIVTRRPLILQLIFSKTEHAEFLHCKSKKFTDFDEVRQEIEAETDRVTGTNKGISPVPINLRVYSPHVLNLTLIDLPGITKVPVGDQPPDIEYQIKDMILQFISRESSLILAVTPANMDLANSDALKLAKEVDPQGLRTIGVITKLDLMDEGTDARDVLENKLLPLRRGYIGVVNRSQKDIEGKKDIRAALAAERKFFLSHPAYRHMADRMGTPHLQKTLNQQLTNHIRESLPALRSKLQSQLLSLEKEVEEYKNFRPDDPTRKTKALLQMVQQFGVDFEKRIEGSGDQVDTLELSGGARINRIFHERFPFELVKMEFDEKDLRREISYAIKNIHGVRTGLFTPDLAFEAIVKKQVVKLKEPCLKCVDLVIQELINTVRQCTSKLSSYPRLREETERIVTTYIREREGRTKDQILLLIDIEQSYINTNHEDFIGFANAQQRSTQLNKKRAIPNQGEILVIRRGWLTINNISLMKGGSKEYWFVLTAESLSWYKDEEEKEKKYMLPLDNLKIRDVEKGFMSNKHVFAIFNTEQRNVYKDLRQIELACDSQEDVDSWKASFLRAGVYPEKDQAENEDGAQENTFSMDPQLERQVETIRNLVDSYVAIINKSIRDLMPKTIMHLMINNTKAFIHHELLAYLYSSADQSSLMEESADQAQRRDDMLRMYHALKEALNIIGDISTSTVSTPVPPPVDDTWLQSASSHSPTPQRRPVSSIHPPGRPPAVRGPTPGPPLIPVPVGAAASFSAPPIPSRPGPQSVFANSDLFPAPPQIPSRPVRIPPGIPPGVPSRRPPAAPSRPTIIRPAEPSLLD

Columns and labels:
Assay in all cases: log2 fold change, soluble protein after heating vs DMSO (PISA); higher = thermal stabilisation; K562 cells, 10 uM, 30 min; active = over 0.2 and 3.5 SD of the protein, either way, in both replicates (recomputed)
erlotinib = compound: C#Cc1cccc(Nc2ncnc3cc(OCCOC)c(OCCOC)cc23)c1 [erlotinib]
Method in brief: (§1)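 K562 cells at 2×10^6 cells/mL were exposed to 10 μM compound for 30 min, then aliquots were heated for 3 min across 48°C-58°C, pooled, and extracted in PBS containing 0.5% NP-40 at 4°C. The supernatant after 21,000xg for 90 min was taken as soluble protein and measured by TMTpro 16plex LC-MS/MS with channel sums equalised. Thermal stability is reported relative to control samples, with values from duplicates. Fold changes are given on a log2 scale.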

[1] = compound: C/C(=N\NC(=O)C1=CC(=CC=C1)S(=O)(=O)N2CCOCC2)/C3=C(C=CC(=C3)Cl)O
Method in brief: as §1

[2] = compound: C1=CC(=C(C=C1Cl)C2=NC3=NC=CN=C3C(=N2)NC4=CC=NC=C4)F
Method in brief: as §1

[3] = compound: C1=CC(=CC=C1C2=NC3=C(N2)C=C(C=C3)C(=O)N)OC4=CC=C(C=C4)Cl
Method in brief: as §1

[4] = compound: C1=CC2=C(C=CC(=C2)/C=C\3/C(=O)NC(=NCC4=CC=CS4)S3)N=C1
Method in brief: as §1

[5] = compound: C1=CC2=NC=CN=C2C=C1/C=C/3\C(=O)NC(=O)S3
Method in brief: as §1

[6] = compound: C1=CC=C(C=C1)C2=NC(=C(N2)C3=CC=NC=C3)C4=CC(=C(C=C4)Cl)O
Method in brief: as §1

[7] = compound: C1=CC=C2C(=C1)C3=NNC4=CC=CC(=C43)C2=O
Method in brief: as §1

[8] = compound: C1CCN(C1)C(=O)NC2=CC=CC(=C2)NC3=NC=C(C(=N3)NCCC4=CN=CN4)Br
Method in brief: as §1

[9] = compound: C1CN(CCC1(CC2=CC=C(C=C2)Cl)N)C3=NC=NC4=C3C=CN4
Method in brief: as §1

Measured: log2 fold change

DUS4L (UniProt O95620)
inactive: erlotinib -0.009 | [1] 0.013 | [2] -0.084 | [3] 0.03 | [4] -0.034 | [5] 0.113 | [6] -0.024 | [7] -0.001 | [8] -0.074 | [9] 0.037

DNAJC5 (UniProt Q9H3Z4)
inactive: erlotinib -0.011 | [1] -0.16 | [2] 0.002 | [3] 0.01 | [4] 0.045 | [5] 0.09 | [6] -0.029 | [7] -0.148 | [8] 0.072 | [9] 0.052

DTWD2 (UniProt Q8NBA8)
inactive: erlotinib 0.017 | [1] 0.018 | [2] 0.014 | [3] -0.095 | [4] -0.124 | [5] 0.072 | [6] 0.065 | [7] 0.033 | [8] 0.066 | [9] -0.02

DNAJC12 (UniProt Q9UKB3)
inactive: erlotinib -0.023 | [1] 0.007 | [2] 0.01 | [3] -0.023 | [4] 0.026 | [5] 0.023 | [6] -0.021 | [7] -0.042 | [8] -0.006 | [9] -0.008

DST (UniProt Q03001)
inactive: erlotinib 0.266 | [1] -0.181 | [2] -0.204 | [3] -0.053 | [4] 0.258 | [5] -0.161 | [6] 0.045 | [7] 0.027 | [8] 0.026 | [9] 0.129

DSN1 (UniProt Q9H410)
inactive: erlotinib 0.07 | [1] 0.042 | [2] -0.002 | [3] 0.024 | [4] -0.019 | [5] -0.009 | [6] -0.018 | [7] 0.006 | [8] 0.004 | [9] -0.091

Quoted at random: three records from the list, in no set order.
DUS4L (UniProt O95620)
inactive: erlotinib -0.009 | [1] 0.013 | [2] -0.084 | [3] 0.03 | [4] -0.034 | [5] 0.113 | [6] -0.024 | [7] -0.001 | [8] -0.074 | [9] 0.037

DTWD2 (UniProt Q8NBA8)
inactive: erlotinib 0.017 | [1] 0.018 | [2] 0.014 | [3] -0.095 | [4] -0.124 | [5] 0.072 | [6] 0.065 | [7] 0.033 | [8] 0.066 | [9] -0.02

DST (UniProt Q03001)
inactive: erlotinib 0.266 | [1] -0.181 | [2] -0.204 | [3] -0.053 | [4] 0.258 | [5] -0.161 | [6] 0.045 | [7] 0.027 | [8] 0.026 | [9] 0.129

(list continues)

EDEM1 (UniProt Q92611)
inactive: erlotinib 0.029 | [1] -0.113 | [2] 0.003 | [3] -0.042 | [4] 0.052 | [5] 0.036 | [6] 0.033 | [7] -0.002 | [8] 0 | [9] -0.012

DRAP1 isoform 2 (UniProt Q14919)
inactive: erlotinib 0.012 | [1] 0.002 | [2] 0.007 | [3] 0.016 | [4] -0.023 | [5] 0.045 | [6] 0.03 | [7] -0.05 | [8] 0.019 | [9] 0.028

DNAJC9 (UniProt Q8WXX5)
inactive: erlotinib 0.019 | [1] 0.039 | [2] 0.037 | [3] -0.003 | [4] 0.061 | [5] -0.025 | [6] -0.035 | [7] 0 | [8] 0.065 | [9] -0.023

DPM1 (UniProt O60762)
inactive: erlotinib -0.005 | [1] 0.046 | [2] 0.015 | [3] 0.043 | [4] 0.014 | [5] -0.012 | [6] -0.033 | [7] -0.014 | [8] -0.002 | [9] 0.004

DUSP3 (UniProt P51452)
inactive: erlotinib 0.035 | [1] 0.064 | [2] 0.044 | [3] -0.013 | [4] -0.008 | [5] 0.013 | [6] 0.002 | [7] -0.009 | [8] -0.073 | [9] 0.016

DNM1 (UniProt Q05193)
inactive: erlotinib 0.06 | [2] -0.144 | [3] -0.152

DOLK (UniProt Q9UPQ8)
inactive: erlotinib -0.122 | [1] 0.089 | [2] 0.114 | [3] -0.023 | [4] -0.278 | [5] 0.2 | [7] -0.385

DOK1 (UniProt Q99704)
inactive: erlotinib 0.177 | [1] -0.024 | [2] 0.28 | [3] 0.145 | [4] 0.051 | [5] -0.349 | [7] -0.034 | [8] 0.01 | [9] -0.033

DPP9 isoform 2 (UniProt Q86TI2)
inactive: erlotinib 0.029 | [1] 0.085 | [2] 0.008 | [3] 0.017 | [4] 0.094 | [5] -0.025 | [6] -0.006 | [7] 0.033 | [8] 0.014 | [9] 0.068

DPY19L3 (UniProt Q6ZPD9)
inactive: erlotinib 0.096 | [1] -0.082 | [2] -0.007 | [3] 0.144 | [4] 0.116 | [5] -0.002 | [6] -0.14 | [7] 0.085 | [8] -0.09 | [9] 0.164

DUSP14 (UniProt O95147)
inactive: erlotinib 0.12 | [1] -0.077 | [2] -0.092 | [3] -0.017 | [4] 0.047 | [5] -0.081 | [7] -0.124 | [8] 0.119 | [9] 0.305

EAPP (UniProt Q56P03)
inactive: erlotinib -0.073 | [1] 0.077 | [3] -0.035 | [4] -0.123 | [6] 0.032 | [7] 0.046 | [8] 0 | [9] 0.106

DRAP1 (UniProt E9PQX9)
inactive: erlotinib 0.304 | [1] -0.398 | [3] -0.078 | [4] 0.101 | [7] -0.057 | [8] 0.004 | [9] 0.105

EDRF1 (UniProt Q3B7T1)
inactive: erlotinib 0.066 | [2] -0.038 | [3] -0.119 | [5] -0.017 | [6] -0.033

DNPEP (UniProt B9ZVU2)
inactive: erlotinib -0.109 | [1] 0.01 | [3] -0.171 | [4] -0.132 | [7] -0.063 | [8] 0.037 | [9] 0.139

DNPH1 (UniProt H0Y8X4)
inactive: erlotinib -0.02 | [1] -0.332 | [3] 0.016 | [4] 0.201 | [6] -0.341 | [7] 0.085 | [8] -0.087 | [9] 0.219

EDC4 (UniProt Q6P2E9)
inactive: erlotinib -0.045 | [1] 0.1 | [2] -0.058 | [3] 0.017 | [4] -0.177 | [5] -0.069 | [6] -0.035 | [7] -0.151 | [8] -0.023 | [9] -0.041

DPYSL2 (UniProt Q16555)
inactive: erlotinib -0.02 | [1] -0.104 | [2] 0.099 | [3] 0.072 | [4] 0.074 | [5] 0.003 | [7] 0.055 | [8] -0.044 | [9] 0.14

DTWD1 (UniProt Q8N5C7)
inactive: erlotinib 0.072 | [1] 0.007 | [2] 0.002 | [3] -0.122 | [4] 0.018 | [5] 0.017 | [6] -0.039 | [7] 0.023 | [8] 0.016 | [9] 0.044

DSTN (UniProt P60981)
inactive: erlotinib -0.023 | [1] -0.019 | [2] 0.041 | [3] -0.002 | [4] 0.003 | [5] 0.032 | [6] 0.062 | [7] -0.048 | [8] 0.037 | [9] 0.002

DOK3 (UniProt Q7L591)
inactive: erlotinib -0.001 | [1] 0.174 | [2] 0.112 | [3] -0.063 | [4] -0.052 | [5] -0.141 | [7] 0.041 | [8] -0.176 | [9] 0.11

DNASE1L1 (UniProt P49184)
inactive: erlotinib 0.072 | [1] -0.097 | [3] 0.159 | [4] 0.126 | [7] -0.013

DNAJC16 (UniProt Q9Y2G8)
inactive: erlotinib -0.046 | [1] -0.071 | [2] -0.355 | [3] 0.119 | [4] -0.503 | [5] 0.233 | [7] -0.187 | [8] 0.119 | [9] 0.05

DNM1L isoform 2 (UniProt O00429)
inactive: erlotinib -0.09 | [1] -0.03 | [3] 0.095 | [4] -0.151 | [5] 0.036 | [6] -0.135 | [7] 0.048 | [8] -0.012 | [9] 0.029

DNM2 isoform 4 (UniProt P50570)
inactive: erlotinib 0.042 | [2] 0.084 | [3] -0.128 | [5] 0.261 | [6] -0.008

DNAJC30 (UniProt Q96LL9)
inactive: erlotinib -0.034 | [1] -0.151 | [3] 0.016 | [4] -0.073 | [7] -0.01
